Screening data

Source: PubChem BioAssay AID893 (NCATS, 2007).

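Recombinant human HSD17B10 (3-hydroxyacyl-CoA dehydrogenase type-2) enzyme, with activity tracked as NADH fluorescence build-up in a kinetic read. Each compound was run as a 15-point series from about 0.0007 to 57 µM. Fitted half-maximal potency (AC50) from the inhibition curve; a lower value means a more potent inhibitor. The record's title names HSD17B4; its protocol and target entry give this enzyme. Active means a well-fitted inhibition curve with a large enough effect; inconclusive means a weak, poorly fitted or top-concentration-only effect.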

Values are in nM. These entries are mostly ones the record files as inconclusive; other results of the assay are not listed here. Potencies fitted to partial, single-point or poorly fitting curves are rough. Some entries filed as inconclusive have a full curve.

{"compound": "COc1ccccc1NC(=O)C1=C(C)NC(SCC(=O)c2ccccc2)=C(C#N)C1c1ccco1", "stereo": "stereo unspecified", "Potency (nM)": "31622", "filed as": "inconclusive", "curve as filed": "inhibitor, single point"}
{"compound": "COc1ncc2nc(-c3cccs3)c(=O)n(CCC#N)c2n1", "Potency (nM)": "15848", "filed as": "active"}
{"compound": "CCOc1cccc2cc(-c3nnc(NCc4ccco4)s3)c(=O)oc12", "Potency (nM)": "12589", "filed as": "inconclusive", "curve as filed": "inhibitor, partial curve"}
{"compound": "COc1ccc(-n2c(O)c(/C=N/n3cnnc3)c3ccccc3c2=O)cc1", "Potency (nM)": "39810", "filed as": "inconclusive", "curve as filed": "inhibitor, single point"}
{"compound": "COc1ccc(-c2nc3cnc(N4CCNCC4)nc3n(C3CC3)c2=O)cc1", "Potency (nM)": "31622", "filed as": "active"}
{"compound": "Cc1ccc2cc3c(NC(=O)c4ccco4)nn(C)c3nc2c1", "Potency (nM)": "31622", "filed as": "inconclusive", "curve as filed": "inhibitor, single point"}
{"compound": "Cc1ccc(-c2nc(-c3nccc4ccccc34)oc2-c2ccccc2)cc1", "Potency (nM)": "3162", "filed as": "active"}
{"compound": "O=C(CN1C(=O)c2cccc3cccc1c23)Nc1ccc2c(c1)OCO2", "Potency (nM)": "39810", "filed as": "inconclusive", "curve as filed": "inhibitor, single point"}
{"compound": "COc1ccc(Oc2ncc3nc(-c4ccc(Cl)cc4)c(=O)n(CCC#N)c3n2)cc1", "Potency (nM)": "31622", "filed as": "inconclusive", "curve as filed": "inhibitor, single point"}
{"compound": "CN1C(=O)c2cccc3c(S(=O)(=O)NCc4ccco4)ccc1c23", "Potency (nM)": "25118", "filed as": "inconclusive", "curve as filed": "inhibitor, single point"}
{"compound": "COc1ccc(-c2nc3cnc(N4CCN(C)CC4)nc3n(C)c2=O)cc1", "Potency (nM)": "39810", "filed as": "inconclusive", "curve as filed": "inhibitor, single point"}
{"compound": "CC(C)c1cccc2nc3c(c(C(C)(C)C)c12)Cn1c-3cccc1=O", "Potency (nM)": "10000", "filed as": "active"}
{"compound": "O=C(c1ccco1)N1CCN(C(=O)c2cnn3c(C(F)(F)F)cc(-c4cccs4)nc23)CC1", "Potency (nM)": "31622", "filed as": "inconclusive", "curve as filed": "inhibitor, single point"}
{"compound": "CC(=O)Oc1cc(OC(C)=O)c2c(=O)cc(-c3ccc(OC(C)=O)c(OC(C)=O)c3)oc2c1", "Potency (nM)": "31622", "filed as": "active"}
{"compound": "COc1ccc(Oc2ncc3nc(-c4cc(F)cc(F)c4)c(=O)n(C4CC4)c3n2)cc1", "Potency (nM)": "39810", "filed as": "inconclusive", "curve as filed": "inhibitor, single point"}
{"compound": "Cc1nc2cnc(N(C)C)nc2n(-c2ccccc2)c1=O", "Potency (nM)": "25118", "filed as": "inconclusive", "curve as filed": "inhibitor, single point"}
{"compound": "CCN(CC)S(=O)(=O)c1cccc2cc(C(=O)O)c(O)cc12", "Potency (nM)": "39810", "filed as": "inconclusive", "curve as filed": "inhibitor, single point"}
{"compound": "Cc1nc2ccccc2n2c(O)c(CC(=O)O)cc12", "Potency (nM)": "39810", "filed as": "inconclusive", "curve as filed": "inhibitor, single point"}
{"compound": "COc1cccc(Cn2c(=O)c(-c3cccs3)nc3cnc(N(C)C)nc32)c1", "Potency (nM)": "6310", "filed as": "inconclusive", "curve as filed": "inhibitor, full curve"}
{"compound": "Cn1c(=O)c(-c2ccccc2)nc2cnc(Oc3ccccc3)nc21", "Potency (nM)": "39810", "filed as": "inconclusive", "curve as filed": "inhibitor, single point"}
{"compound": "COc1ccc2nc(S(=O)Cc3ncc(C)c(OC)c3C)[nH]c2c1", "stereo": "stereo unspecified", "Potency (nM)": "15848", "filed as": "inconclusive", "curve as filed": "inhibitor, single point"}
{"compound": "C=CCN1CC[C@]23c4c5ccc(O)c4O[C@@H]2C(=O)CC[C@]3(O)[C@H]1C5", "Potency (nM)": "12589", "filed as": "inconclusive", "curve as filed": "inhibitor, partial curve"}
{"compound": "CCCNC(=O)c1c(N)n(-c2cc(OC)cc(OC)c2)c2nc3ccccc3nc12", "Potency (nM)": "31622", "filed as": "active"}
{"compound": "CCCCCCNC(=O)C(C#N)c1nc2ccccc2nc1N1CCCC1", "stereo": "stereo unspecified", "Potency (nM)": "31622", "filed as": "inconclusive", "curve as filed": "inhibitor, single point"}
{"compound": "CN(C)c1ncc2ncc(=O)n(C[C@H]3CCCO3)c2n1", "Potency (nM)": "31622", "filed as": "inconclusive", "curve as filed": "inhibitor, single point"}

Once more, the final 3:

compound,Potency (nM),filed as,curve as filed
CCCNC(=O)c1c(N)n(-c2cc(OC)cc(OC)c2)c2nc3ccccc3nc12,31622,active,-
CCCCCCNC(=O)C(C#N)c1nc2ccccc2nc1N1CCCC1 (stereo unspecified),31622,inconclusive,"inhibitor, single point"
CN(C)c1ncc2ncc(=O)n(C[C@H]3CCCO3)c2n1,31622,inconclusive,"inhibitor, single point"